## Results from one PubChem assay

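Luminescence from an EWS-FLI1 target-promoter (NR0B1) reporter, set against a CMV-promoter reporter, two days after silencing single genes in TC32 Ewing sarcoma cells.
Each siRNA was applied at 20 nM.
A z-score of the log NR0B1-over-CMV signal, less the median of siRNAs with the same seed; more negative means a stronger specific loss of the NR0B1 reporter.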

This is part of the screen; most of the strongest results are not listed here.
Sequences are the guide (antisense) strand, without overhang.

| # | strand | gene | seed-corrected z-score |
|---|---|---|---|
| 1 | `AUAGUAUUCAGGCACACUU` | KHDRBS2 | -0.6187 |
| 2 | `UACAUAAUCUGACUUCUCC` | SOX1 | 0.6531 |
| 3 | `ACAAGGAUAAUAACGACAC` | ASUN | 0.4612 |
| 4 | `UUUCGAAAAAUCGGAUUCC` | RAB13 | 0.7122 |
| 5 | `UUUUUCAUCAGCUUGAGAU` | C9orf114 | 0.4023 |
| 6 | `UCUGAUACUGCGGUUGAGC` | YTHDF1 | 0.2645 |
| 7 | `UUACUUCCUCGCCUGGUUU` | PSD4 | 0.3586 |
| 8 | `UGAGCUACUGCUGGAAUCG` | AP3B2 | -0.2639 |
| 9 | `UCGGGUAUUCCUAAGGCUC` | NCOA2 | 0.5082 |
| 10 | `AAGGCGAAGAGUAGGAUGC` | CSTF1 | 0.7163 |
| 11 | `UUUGUUGAUUUCAAAGAUG` | SPHKAP | 0.05041 |
| 12 | `UACAUAGUAGCGCAGAUUC` | RASA2 | -0.4919 |
| 13 | `UCACGGGCAACUCCACUAC` | TBC1D10A | 0.1847 |
| 14 | `UUUCUUACAGAUUUGCAUG` | RPL21P106 | 1.48 |
| 15 | `UCAUUAAACAAACUCCUGC` | UGT1A10 | -0.3321 |
| 16 | `UAAUGGAUUGGGAUCAGGC` | ZCCHC5 | 1.403 |
| 17 | `UAUAUUCUCUCACUCGUUC` | TTC9C | 0.3175 |
| 18 | `AUGCGAUCCAGAAAGAUCC` | IMPG1 | -0.2383 |
| 19 | `UAUCUUCUUCGCAGAGAGG` | OR4N2 | -0.1829 |
| 20 | `UUCUGGAUCUCGAAAUUGU` | OAS2 | 0.1546 |
| 21 | `AAGGAUACUGCUUUGGUCC` | NDUFB8 | 0.3507 |
| 22 | `UCCUCGACUGAUUCAACCC` | MAML2 | 0.6323 |
| 23 | `UACUCAAUCAUUCUUGCUC` | RASGEF1B | -0.2576 |
| 24 | `UUCCGUUUGAUGUCACAUG` | LOC645177 | -0.3649 |
| 25 | `UUUUGCUUGAGGUGGAUCU` | EGR3 | -1.112 |
| 26 | `AAUAGAAUAGAACUGUUCC` | SORT1 | 0.2027 |
| 27 | `UCUUUGGAAAGUUCUACUC` | SRPRA | 0.296 |
| 28 | `UUCCGGUUGAGAUACCGUG` | HGS | 0.2725 |
| 29 | `AUACUGACAAGAGCGGAGG` | VPS52 | 0.6336 |
| 30 | `UUAACAUCCAAGUAGGCUC` | PAPPA | -1.334 |
| 31 | `AGAAGAAUCCUUUCGAUUG` | CIZ1 | 2.127 |
| 32 | `AAUAUUUCCACAGUUGAUC` | KISS1R | 0.4669 |
| 33 | `UACAUGUUAUACUCCUUGC` | SKAP1 | -0.00304 |
| 34 | `UCAGUGUUAACUGCUCCAC` | MRPL44 | 0.8032 |
| 35 | `UACACUACCUCCUAAAAGG` | OCLN | -0.05313 |
| 36 | `UCUUUGUUCUGGGUGUCGC` | DPEP1 | -0.924 |
| 37 | `UUCUGCUUCACGGUGAUGC` | TBC1D24 | -1.036 |
| 38 | `UUCCUUGUAGUAUACUCGG` | RAB32 | -0.1716 |
| 39 | `UGCACUUCCGCAAUGCUGG` | CACNB3 | -0.5015 |
| 40 | `UGCUCUGCAGGUAAUCAUC` | MYD88 | -0.7406 |
| 41 | `UGCGCUAUCUGGAUGAAGC` | TTC21A | -0.7308 |
| 42 | `CGUGUUCACGCUGUUGGUG` | SCX | 0.417 |
| 43 | `UUUUUCGUCAGAUACAUCC` | RWDD2B | 1.394 |
| 44 | `UCAGGUAGUAGCGUAGAGG` | TSPYL2 | 0.2059 |
| 45 | `UUAGAGUAUGCAAUCUGGG` | ACP5 | 0.04486 |
| 46 | `AUAGGCUUCUCGACGAUAC` | NT5C2 | -0.6249 |
| 47 | `AACGGAGAACAGAUAAUCC` | SCN1A | -0.222 |
| 48 | `UUCCGGGCUUCUAACAUGG` | ZNF385D | 0.09664 |
| 49 | `UCAUCGAGGAGUUGUCUGC` | GPR68 | -0.9523 |
| 50 | `AGAGUUUUCAGGAGGACGG` | FAM90A27P | 2.734 |
| 51 | `UAUGCUUGUAGAAGGUUUC` | GALNT15 | 0.1983 |
| 52 | `UGGUAUGUAAGGGUACUUC` | PKP4 | -0.5782 |
| 53 | `AAUCUUGAAGCGGAUCUCU` | FBXO46 | 0.2653 |
| 54 | `UAUUAUCCGAUUCUAUAGG` | GPATCH8 | 0.3231 |
| 55 | `UAAUAUCCGUUAUUGAUUC` | PRPF18 | 1.297 |
| 56 | `AAGAUUUUCAGUCCCGCGG` | TNFSF13B | 0.7815 |
| 57 | `UGAAGGCGAAGAACGAGGC` | MALL | -0.3951 |
| 58 | `UUCUAUUCUCACCAUAUCC` | MTHFS | 1.195 |
| 59 | `AAUGUAACACGUUUUGGGC` | LOC391771 | -0.1096 |
| 60 | `UUGAUUUGCAGUAAGUAAG` | OR9A4 | 0.1265 |
| 61 | `AACAAGUUCAGUUUGGUAC` | TOR1AIP2 | 0.3546 |
| 62 | `UCUUCUCACACUCAUAGGC` | ARID3B | 0.8233 |
| 63 | `AAAAUAAGCACUAUGCUUG` | FOXQ1 | 0.7373 |
| 64 | `UAAGAGAUCAUAUUGACAG` | AADAC | 0.2135 |
| 65 | `UUGCAUACCAAGUAAACUG` | PI15 | 1.021 |
| 66 | `UCAAUAGUAAAAAUCUGCC` | VWA9 | -0.9178 |
| 67 | `UUCUAGCUUAAAAACACCU` | UBE2T | -0.09605 |
| 68 | `UCGAGAAAUAGAGUAGAGC` | GINM1 | -0.2104 |

The first 6 entries again:

strand	gene	seed-corrected z-score
AUAGUAUUCAGGCACACUU	KHDRBS2	-0.6187
UACAUAAUCUGACUUCUCC	SOX1	0.6531
ACAAGGAUAAUAACGACAC	ASUN	0.4612
UUUCGAAAAAUCGGAUUCC	RAB13	0.7122
UUUUUCAUCAGCUUGAGAU	C9orf114	0.4023
UCUGAUACUGCGGUUGAGC	YTHDF1	0.2645

Data taken from PubChem BioAssay AID1159506, deposited by NCATS (2015).